Drawing on PMC9563141, this text covers binding for five molecules.

Sequences of proteins named here, by UniProt entry; tags and fusion partners are left off.
UniProt Q14457: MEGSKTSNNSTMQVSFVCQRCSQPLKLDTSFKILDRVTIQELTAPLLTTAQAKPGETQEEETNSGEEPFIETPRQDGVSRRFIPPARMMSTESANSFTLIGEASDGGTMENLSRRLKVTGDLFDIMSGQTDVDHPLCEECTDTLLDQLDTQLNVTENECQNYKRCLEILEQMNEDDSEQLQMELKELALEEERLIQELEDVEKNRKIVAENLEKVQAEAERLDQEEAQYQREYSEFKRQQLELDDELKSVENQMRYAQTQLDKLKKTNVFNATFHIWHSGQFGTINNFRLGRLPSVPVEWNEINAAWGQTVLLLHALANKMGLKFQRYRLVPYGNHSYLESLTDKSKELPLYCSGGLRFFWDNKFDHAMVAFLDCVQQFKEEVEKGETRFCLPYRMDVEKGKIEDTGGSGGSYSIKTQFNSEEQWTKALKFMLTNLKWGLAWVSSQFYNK
UniProt Q00987: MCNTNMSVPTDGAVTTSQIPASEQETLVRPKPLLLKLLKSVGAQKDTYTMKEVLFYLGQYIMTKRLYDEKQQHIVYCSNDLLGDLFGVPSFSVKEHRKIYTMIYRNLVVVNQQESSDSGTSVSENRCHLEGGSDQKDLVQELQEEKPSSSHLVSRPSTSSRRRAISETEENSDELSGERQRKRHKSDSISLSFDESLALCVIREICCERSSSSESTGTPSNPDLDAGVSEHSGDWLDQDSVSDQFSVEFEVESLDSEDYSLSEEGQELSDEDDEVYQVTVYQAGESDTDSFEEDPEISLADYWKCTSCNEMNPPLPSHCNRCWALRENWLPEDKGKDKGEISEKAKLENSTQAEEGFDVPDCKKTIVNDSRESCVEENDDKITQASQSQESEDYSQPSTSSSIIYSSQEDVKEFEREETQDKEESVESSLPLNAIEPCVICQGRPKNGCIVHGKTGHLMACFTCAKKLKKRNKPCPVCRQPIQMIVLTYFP

Assay [1] has as its target Beclin 1 (human (endogenous in HCT116)) (UniProt Q14457). As to the kind of experiment: co-IP; endogenous proteins of HCT116 or HCT116 p53-/- cells; precipitated with an antibody specific for Beclin 1 or for MDMX, IgG control; western blot. In general terms: A western blot detects proteins with antibodies after separation by electrophoresis.
The next assay has as its target Flag-Beclin 1 (FL) (UniProt Q14457). As to the kind of experiment: co-IP; 293FT cells co-transfected with Flag-Beclin 1 (FL) or a Beclin 1 deletion construct and MDM2, MDMX or RB; total cell lysates, IP-western.
Assay [2] addresses T1, MDMX (human (endogenous in HCT116)) (UniProt O15151).
T1 sequence: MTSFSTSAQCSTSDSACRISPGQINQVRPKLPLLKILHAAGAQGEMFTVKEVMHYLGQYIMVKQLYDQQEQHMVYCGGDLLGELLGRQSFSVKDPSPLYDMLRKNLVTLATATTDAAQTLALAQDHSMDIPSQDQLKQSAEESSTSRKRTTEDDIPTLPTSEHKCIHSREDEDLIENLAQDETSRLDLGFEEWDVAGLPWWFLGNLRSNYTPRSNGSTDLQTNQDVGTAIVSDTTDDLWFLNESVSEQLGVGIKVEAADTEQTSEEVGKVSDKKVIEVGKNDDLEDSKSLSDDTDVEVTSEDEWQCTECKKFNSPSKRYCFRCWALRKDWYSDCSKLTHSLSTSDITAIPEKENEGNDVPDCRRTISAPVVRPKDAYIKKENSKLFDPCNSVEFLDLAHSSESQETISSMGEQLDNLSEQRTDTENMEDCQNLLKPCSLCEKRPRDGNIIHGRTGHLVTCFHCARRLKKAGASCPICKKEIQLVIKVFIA
Briefly: co-IP; endogenous proteins of HCT116 or HCT116 p53-/- cells; precipitated with an antibody specific for Beclin 1 or for MDMX, IgG control; western blot.

These are yes or no findings as the source states them, for the method shown. In cells and extracts the contact can be indirect. Some binding calls cover weakened binding; strength is not graded here.

For the molecule “MDM2 (the double mouse minute 2 homolog) (from UniProt Q00987 1-491)”, the binding entry in assay [1] is on record as “binds”.

For “MDM2 (transfected) (from UniProt Q00987 1-491)”, in the assay with Flag-Beclin 1 (FL), the binding entry is reported as “binds”.

B1: retinoblastoma protein (RB) (protein, UniProt P06400 1-928)
chain: MPPKTPRKTAATAAAAAAEPPAPPPPPPPEEDPEQDSGPEDLPLVRLEFEETEEPDFTALCQKLKIPDHVRERAWLTWEKVSSVDGVLGGYIQKKKELWGICIFIAAVDLDEMSFTFTELQKNIEISVHKFFNLLKEIDTSTKVDNAMSRLLKKYDVLFALFSKLERTCELIYLTQPSSSISTEINSALVLKVSWITFLLAKGEVLQMEDDLVISFQLMLCVLDYFIKLSPPMLLKEPYKTAVIPINGSPRTPRRGQNRSARIAKQLENDTRIIEVLCKEHECNIDEVKNVYFKNFIPFMNSLGLVTSNGLPEVENLSKRYEEIYLKNKDLDARLFLDHDKTLQTDSIDSFETQRTPRKSNLDEEVNVIPPHTPVRTVMNTIQQLMMILNSASDQPSENLISYFNNCTVNPKESILKRVKDIGYIFKEKFAKAVGQGCVEIGSQRYKLGVRLYYRVMESMLKSEEERLSIQNFSKLLNDNIFHMSLLACALEVVMATYSRSTSQNLDSGTDLSFPWILNVLNLKAFDFYKVIESFIKAEGNLTREMIKHLERCEHRIMESLAWLSDSPLFDLIKQSKDREGPTDHLESACPLNLPLQNNHTAADMYLSPVRSPKKKGSTTRVNSTANAETQATSAFQTQKPLKSTSLSLFYKKVYRLAYLRLNTLCERLLSEHPELEHIIWTLFQHTLQNEYELMRDRHLDQIMMCSMYGICKVKNIDLKFKIIVTAYKDLPHAVQETFKRVLIKEEEYDSIIVFYNSVFMQRLKTNILQYASTRPPTLSPIPHIPRSPYKFPSSPLRIPGGNIYISPLKSPYKISEGLPTPTKMTPRSRILVSIGESFGTSEKFQKINQMVCNSDRVLKRSAEGSNPPKPLKKLRFDIEGSDEADGSKHLPGESKFQQKLAEMTSTRTRMQKQKMNDSMDTSNKEEK
Consider B1, for which the binding result in assay [2] was “binds”.

B2: MDMX (protein, UniProt O15151 1-490)
chain: MTSFSTSAQCSTSDSACRISPGQINQVRPKLPLLKILHAAGAQGEMFTVKEVMHYLGQYIMVKQLYDQQEQHMVYCGGDLLGELLGRQSFSVKDPSPLYDMLRKNLVTLATATTDAAQTLALAQDHSMDIPSQDQLKQSAEESSTSRKRTTEDDIPTLPTSEHKCIHSREDEDLIENLAQDETSRLDLGFEEWDVAGLPWWFLGNLRSNYTPRSNGSTDLQTNQDVGTAIVSDTTDDLWFLNESVSEQLGVGIKVEAADTEQTSEEVGKVSDKKVIEVGKNDDLEDSKSLSDDTDVEVTSEDEWQCTECKKFNSPSKRYCFRCWALRKDWYSDCSKLTHSLSTSDITAIPEKENEGNDVPDCRRTISAPVVRPKDAYIKKENSKLFDPCNSVEFLDLAHSSESQETISSMGEQLDNLSEQRTDTENMEDCQNLLKPCSLCEKRPRDGNIIHGRTGHLVTCFHCARRLKKAGASCPICKKEIQLVIKVFIA
For the molecule B2, the binding result in assay [1] is “binds”.

B3: MDMX (transfected) (protein, UniProt O15151 1-490)
chain: MTSFSTSAQCSTSDSACRISPGQINQVRPKLPLLKILHAAGAQGEMFTVKEVMHYLGQYIMVKQLYDQQEQHMVYCGGDLLGELLGRQSFSVKDPSPLYDMLRKNLVTLATATTDAAQTLALAQDHSMDIPSQDQLKQSAEESSTSRKRTTEDDIPTLPTSEHKCIHSREDEDLIENLAQDETSRLDLGFEEWDVAGLPWWFLGNLRSNYTPRSNGSTDLQTNQDVGTAIVSDTTDDLWFLNESVSEQLGVGIKVEAADTEQTSEEVGKVSDKKVIEVGKNDDLEDSKSLSDDTDVEVTSEDEWQCTECKKFNSPSKRYCFRCWALRKDWYSDCSKLTHSLSTSDITAIPEKENEGNDVPDCRRTISAPVVRPKDAYIKKENSKLFDPCNSVEFLDLAHSSESQETISSMGEQLDNLSEQRTDTENMEDCQNLLKPCSLCEKRPRDGNIIHGRTGHLVTCFHCARRLKKAGASCPICKKEIQLVIKVFIA
Turning to B3, the binding result with Flag-Beclin 1 (FL) is listed as “binds”.
